Data published in PMC7641318.
Results are given in words; binding and its absence hold for the method and conditions named.

Target: Histidine-tagged hADAR2-R2D E488Q for in vitro assays (human) (UniProt P78563)
Experiment: SEC; analytical gel filtration, Superdex increase 5/150 GL; 25 μl of 10 μM protein without RNA; 20 mM Tris-HCl pH 8.0, 200 mM NaCl, 5% glycerol, 1 mM BME; both purified

Histidine-tagged hADAR2-R2D E488Q for in vitro assays (from UniProt P78563-2 214-701) (domain or fragment)
binding: no binding (condition: without RNA (10 μM protein))
